In assay [1] the target is phyB-nLUC (Arabidopsis) (UniProt P14713). Nature of the assay: split reporter; firefly luciferase complementation imaging (LCI); phyB-nLUC and cLUC-BBX11 co-expressed in Nicotiana benthamiana leaves; 1 d darkness, then red light (94 μmol/m^2/s) for 2 d.
Assay [2] has the same target. Nature of the assay: split reporter; firefly luciferase complementation imaging (LCI); phyB-nLUC and cLUC-BBX11 co-expressed in Nicotiana benthamiana leaves; 1 d darkness, then kept in darkness for 2 d more.
A further assay concerns the target myc-BBX11 (Arabidopsis) (UniProt O82256). Nature of the assay: co-IP; 35S:myc-BBX11 alone or together with 35S:phyB-Flag or 35S:PIF4-Flag transiently expressed in Nicotiana benthamiana leaves (long days, 3 d); extracts incubated with anti-myc antibodies on Protein-A Sepharose, 3 h at 4 °C; immunoblot with anti-myc and anti-Flag.

Sequences of proteins named here, by UniProt entry; tags and fusion partners are left off. A change or cut given only in a name is not applied to a line headed by its entry.
UniProt P14713: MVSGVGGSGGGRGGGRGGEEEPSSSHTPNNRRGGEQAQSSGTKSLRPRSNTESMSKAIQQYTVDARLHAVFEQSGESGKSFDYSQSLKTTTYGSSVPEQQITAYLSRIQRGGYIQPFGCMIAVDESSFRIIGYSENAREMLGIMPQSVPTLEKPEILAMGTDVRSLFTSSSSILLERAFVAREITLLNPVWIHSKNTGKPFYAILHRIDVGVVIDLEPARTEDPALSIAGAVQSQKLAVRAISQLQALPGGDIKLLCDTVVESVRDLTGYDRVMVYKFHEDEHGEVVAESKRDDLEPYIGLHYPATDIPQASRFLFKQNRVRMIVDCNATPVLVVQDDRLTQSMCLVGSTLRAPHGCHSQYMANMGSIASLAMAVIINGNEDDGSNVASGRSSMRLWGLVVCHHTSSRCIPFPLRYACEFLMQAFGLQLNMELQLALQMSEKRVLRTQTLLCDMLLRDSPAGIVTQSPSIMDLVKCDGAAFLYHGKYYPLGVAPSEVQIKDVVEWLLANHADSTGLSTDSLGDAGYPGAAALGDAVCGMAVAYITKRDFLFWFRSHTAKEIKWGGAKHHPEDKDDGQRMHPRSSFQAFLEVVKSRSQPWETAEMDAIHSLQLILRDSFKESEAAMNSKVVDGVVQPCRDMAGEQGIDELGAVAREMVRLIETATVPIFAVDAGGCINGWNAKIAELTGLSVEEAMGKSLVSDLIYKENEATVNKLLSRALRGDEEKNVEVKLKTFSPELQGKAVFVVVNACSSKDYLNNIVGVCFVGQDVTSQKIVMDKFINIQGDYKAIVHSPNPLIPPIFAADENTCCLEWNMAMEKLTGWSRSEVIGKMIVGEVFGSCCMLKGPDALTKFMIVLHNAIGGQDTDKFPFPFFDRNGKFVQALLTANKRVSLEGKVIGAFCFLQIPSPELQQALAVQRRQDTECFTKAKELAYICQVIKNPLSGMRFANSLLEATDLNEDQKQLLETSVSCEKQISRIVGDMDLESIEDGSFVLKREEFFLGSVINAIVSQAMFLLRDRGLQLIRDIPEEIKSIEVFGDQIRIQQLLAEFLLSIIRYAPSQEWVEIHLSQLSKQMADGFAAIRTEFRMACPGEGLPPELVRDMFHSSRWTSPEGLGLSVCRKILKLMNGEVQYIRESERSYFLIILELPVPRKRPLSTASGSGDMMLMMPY
UniProt O82256: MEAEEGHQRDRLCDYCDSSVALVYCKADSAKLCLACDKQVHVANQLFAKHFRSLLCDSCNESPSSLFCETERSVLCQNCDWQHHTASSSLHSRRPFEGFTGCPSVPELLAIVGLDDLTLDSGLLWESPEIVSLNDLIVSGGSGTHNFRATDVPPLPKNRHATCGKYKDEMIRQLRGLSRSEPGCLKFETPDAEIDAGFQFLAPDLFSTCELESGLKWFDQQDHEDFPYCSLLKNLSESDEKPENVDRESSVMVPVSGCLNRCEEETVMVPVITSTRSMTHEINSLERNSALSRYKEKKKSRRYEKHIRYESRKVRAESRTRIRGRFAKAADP

These are yes or no findings as the source states them, for the method shown. Binding seen in cells or lysates may run through a third protein. For part of these data: Binding calls can cover weak binding; strength is not graded here.

We go through two substances from paper PMC9590482.

On to cLUC-BBX11 (from UniProt O82256), for which the results for the binding entry in the assay with phyB-nLUC (Arabidopsis) [1] and with phyB-nLUC (Arabidopsis) [2] were “binds” and “no binding (only leaves kept in darkness)”, respectively. In the case of phyB-Flag (from UniProt P14713 1-1172), the binding result in the assay with myc-BBX11 (Arabidopsis) is recorded as “binds”.
